{
  "source": "paper doi:10.1101/2025.03.20.644464",
  "key": {"[1]": {"target": "T1, Lupus La protein (human (endogenous in MDA-MB-231)) (UniProt P05455)", "T1 sequence": "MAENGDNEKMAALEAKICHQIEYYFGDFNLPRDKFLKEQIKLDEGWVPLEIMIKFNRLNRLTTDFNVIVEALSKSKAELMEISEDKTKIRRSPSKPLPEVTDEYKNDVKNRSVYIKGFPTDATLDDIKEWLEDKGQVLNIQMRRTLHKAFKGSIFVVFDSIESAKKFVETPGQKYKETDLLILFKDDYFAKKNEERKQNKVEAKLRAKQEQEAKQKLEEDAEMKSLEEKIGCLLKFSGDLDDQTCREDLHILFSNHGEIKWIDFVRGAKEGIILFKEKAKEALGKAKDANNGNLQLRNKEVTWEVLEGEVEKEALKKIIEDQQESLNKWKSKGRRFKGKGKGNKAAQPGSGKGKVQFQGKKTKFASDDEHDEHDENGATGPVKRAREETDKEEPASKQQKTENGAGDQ", "assay": "co-IP; exosomes immunoisolated from MDA-MB-231 HA-CD63-mEGFP^ECL1 cells with GFP-Trap beads, lysed in IP buffer; 5 ug mouse anti-La antibody or IgG isotype control with Protein A/G agarose beads, overnight, 4°C; immunoblot"}, "[2]": {"target": "T1, Lupus La protein (human (endogenous in MDA-MB-231))", "assay": "co-IP; MDA-MB-231 WT cells lysed in IP buffer (20 mM HEPES pH 7.4, 100 mM KCl, 5 mM MgCl2, 1% TX-100); 5 ug mouse anti-La antibody or IgG isotype control with Protein A/G agarose beads, overnight, 4°C; immunoblot"}},
  "note": "Results are given in words; binding and its absence hold for the method and conditions named. Binding seen in cells or lysates may run through a third protein. Some binding calls cover weakened binding; strength is not graded here.",
  "data": [
    {"substance": "selective autophagy receptor p62 (from UniProt Q13501 1-440)", "values": [
      {"measurement": "binding", "setting": "[1]", "value": "binds"},
      {"measurement": "binding", "setting": "[2]", "value": "binds"}
    ]}
  ]
}
